Patent US20090068178A1
No constants are given. Whether binding was seen depends on the method and setting. Some results given as binding are weak or reduced against the parent protein; the word gives no strength.

Sequences of proteins named here, by UniProt entry; tags and fusion partners are left off. A change or cut given only in a name is not applied to a line headed by its entry.
UniProt P40259: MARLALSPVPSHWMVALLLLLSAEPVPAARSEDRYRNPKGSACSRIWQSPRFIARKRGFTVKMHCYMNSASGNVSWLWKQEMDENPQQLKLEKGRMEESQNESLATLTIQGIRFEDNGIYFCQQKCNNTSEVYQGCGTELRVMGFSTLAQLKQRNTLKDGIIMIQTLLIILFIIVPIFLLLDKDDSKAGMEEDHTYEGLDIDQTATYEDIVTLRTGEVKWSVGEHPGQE

Columns and labels:
[1] = molecular target: ECD portion of the human CD79b (TAHO5) protein (human) (UniProt P40259); experiment: antibody pre-incubated with the ECD protein (antibody: protein 1:3), then FACS on BJAB cells
[2] = molecular target: T1, human CD79b (TAHO5) 21 mer peptide (human); experiment: antibody pre-incubated with the 21mer peptide (antibody: peptide 1:10), then FACS on BJAB cells
T1 sequence (peptide): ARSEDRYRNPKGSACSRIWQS

B1: anti-human CD79b (TAHO5) antibody (SN8) (antibody, human IgG1, kappa, V domains shown)
VH: EVQLQQSGAELMKPGASVKISCKATGYTFSSYWIEWVKQRPGHGLEWIGEILPGGGDTNYNEIFKGKATFTADTSSNTAYMQLSSLTSEDSAVYYCTRRVPVYFDYWGQGTSVTVSS
VL: DIVLTQSPASLAVSLGQRATISCKASQSVDYDGDSFLNWYQQKPGQPPKLFIYAASNLESGIPARFSGSGSGTDFTLNIHPVEEEDAATYYCQQSNEDPLTFGAGTELELKR
Question: Which binding [1] does the source give for B1 here?
Answer: binds

Question: And the binding [2]?
Answer: binds
